Results reported in patent publication US8828928B2, “Amphiphilic peptides and peptide particles” (President and Fellows of Harvard College, priority 2011, dated 2014).
No constants are given. Whether binding was seen depends on the method and setting. Some results given as binding are weak or reduced against the parent protein; the word gives no strength.

Chains of the proteins cited; added tags and fusions are not shown. Residues count along the entry.
UniProt Q07891: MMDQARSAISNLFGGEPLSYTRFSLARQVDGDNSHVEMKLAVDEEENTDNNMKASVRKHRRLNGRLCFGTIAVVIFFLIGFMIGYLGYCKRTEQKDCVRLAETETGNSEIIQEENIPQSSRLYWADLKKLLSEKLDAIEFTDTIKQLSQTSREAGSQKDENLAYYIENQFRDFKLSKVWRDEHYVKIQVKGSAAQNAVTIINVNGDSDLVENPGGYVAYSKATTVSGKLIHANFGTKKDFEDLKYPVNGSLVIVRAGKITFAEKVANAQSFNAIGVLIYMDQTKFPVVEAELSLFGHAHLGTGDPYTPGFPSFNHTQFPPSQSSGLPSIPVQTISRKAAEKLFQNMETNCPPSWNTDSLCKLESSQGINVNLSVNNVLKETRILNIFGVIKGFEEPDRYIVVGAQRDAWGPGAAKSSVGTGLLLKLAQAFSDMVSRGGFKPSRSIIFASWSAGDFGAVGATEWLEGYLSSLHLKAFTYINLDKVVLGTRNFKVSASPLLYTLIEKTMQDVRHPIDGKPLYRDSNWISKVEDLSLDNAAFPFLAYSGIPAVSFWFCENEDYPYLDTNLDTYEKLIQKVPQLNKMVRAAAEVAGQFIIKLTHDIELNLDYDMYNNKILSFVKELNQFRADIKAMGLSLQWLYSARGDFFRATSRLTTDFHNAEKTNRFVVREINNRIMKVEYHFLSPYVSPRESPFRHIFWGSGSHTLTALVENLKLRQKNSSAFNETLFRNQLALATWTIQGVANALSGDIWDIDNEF
UniProt P02787, residues 20-698: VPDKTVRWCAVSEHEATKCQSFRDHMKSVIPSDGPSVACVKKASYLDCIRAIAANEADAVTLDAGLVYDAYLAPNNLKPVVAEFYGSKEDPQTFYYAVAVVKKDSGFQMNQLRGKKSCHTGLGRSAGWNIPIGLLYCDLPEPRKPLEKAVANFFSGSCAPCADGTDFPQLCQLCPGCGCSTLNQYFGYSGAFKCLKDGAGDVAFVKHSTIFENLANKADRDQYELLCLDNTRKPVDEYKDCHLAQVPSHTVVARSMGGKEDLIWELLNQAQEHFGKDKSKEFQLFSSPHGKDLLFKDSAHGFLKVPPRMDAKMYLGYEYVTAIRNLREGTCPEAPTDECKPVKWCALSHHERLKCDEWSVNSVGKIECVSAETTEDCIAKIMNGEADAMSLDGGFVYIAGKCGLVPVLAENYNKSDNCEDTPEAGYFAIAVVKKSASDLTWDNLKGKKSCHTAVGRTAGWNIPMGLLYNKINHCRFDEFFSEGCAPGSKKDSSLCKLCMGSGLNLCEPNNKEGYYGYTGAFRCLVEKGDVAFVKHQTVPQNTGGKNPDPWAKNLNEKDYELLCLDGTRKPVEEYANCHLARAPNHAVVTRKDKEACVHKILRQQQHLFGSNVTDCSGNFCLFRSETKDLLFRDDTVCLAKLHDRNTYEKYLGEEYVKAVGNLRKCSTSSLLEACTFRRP

What was measured:
[1] = target: transferrin receptor (TfR) on Chinese hamster ovary (CHO) cells (Chinese hamster (CHO cells)) (UniProt Q07891); test: summary of the cell experiments of Example 4
[2] = target: transferrin receptor (TfR) on Chinese hamster ovary (CHO) cells (Chinese hamster (CHO cells)) (UniProt Q07891); test: fluorescence microscopy of CHO cells
[3] = target: transferrin receptor (TfR) on Chinese hamster ovary (CHO) cells (Chinese hamster (CHO cells)) (UniProt Q07891); test: fluorescence microscopy, PNP counts per cell on CHO and TRVb cells with or without Tfn competition
[4] = target: transferrin receptor (TfR) on Chinese hamster ovary (CHO) cells (Chinese hamster (CHO cells)) (UniProt Q07891); test: fluorescence microscopy of CHO cells incubated 1 h with the particles (figure legend)

binding [1]: binds | binding [2]: binds | binding [3]: binds | binding [4]: binds
Substance: Tfn-AF568 (transferrin labeled with Alexa Fluor 568), as the corona of CD3ac peptide nanoparticles PNPFlutax-2^Tfn-AF568 (from UniProt P02787 20-698) (ligand)
